# The list shows a part of the results. Small differences around the control level are noise.
# Chains of the proteins cited; added tags and fusions are not shown. Lines headed by an entry give the natural chain unless they say otherwise; changes in a name come on top.
# UniProt P53004: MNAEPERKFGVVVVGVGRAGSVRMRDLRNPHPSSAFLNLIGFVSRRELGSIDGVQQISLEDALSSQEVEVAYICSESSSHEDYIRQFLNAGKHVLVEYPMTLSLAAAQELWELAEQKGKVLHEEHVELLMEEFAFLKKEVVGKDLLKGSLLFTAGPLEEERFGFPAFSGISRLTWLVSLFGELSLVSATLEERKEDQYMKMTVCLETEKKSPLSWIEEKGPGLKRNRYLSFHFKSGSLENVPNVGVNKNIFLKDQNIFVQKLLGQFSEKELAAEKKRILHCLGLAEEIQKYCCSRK
# UniProt P49116: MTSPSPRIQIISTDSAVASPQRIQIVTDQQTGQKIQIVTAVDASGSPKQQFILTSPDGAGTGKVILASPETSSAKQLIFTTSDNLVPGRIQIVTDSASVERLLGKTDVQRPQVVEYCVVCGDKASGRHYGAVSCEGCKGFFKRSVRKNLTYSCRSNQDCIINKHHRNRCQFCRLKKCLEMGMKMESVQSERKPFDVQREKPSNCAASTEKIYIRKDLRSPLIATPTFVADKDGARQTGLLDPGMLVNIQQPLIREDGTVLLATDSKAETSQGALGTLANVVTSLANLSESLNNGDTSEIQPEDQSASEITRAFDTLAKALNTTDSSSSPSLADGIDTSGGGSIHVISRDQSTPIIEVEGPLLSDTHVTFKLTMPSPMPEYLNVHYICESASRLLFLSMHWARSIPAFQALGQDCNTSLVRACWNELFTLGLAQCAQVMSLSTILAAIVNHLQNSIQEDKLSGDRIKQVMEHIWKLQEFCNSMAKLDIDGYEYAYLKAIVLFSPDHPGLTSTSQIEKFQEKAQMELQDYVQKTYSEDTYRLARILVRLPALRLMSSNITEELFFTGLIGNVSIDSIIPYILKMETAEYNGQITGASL
# UniProt P50402: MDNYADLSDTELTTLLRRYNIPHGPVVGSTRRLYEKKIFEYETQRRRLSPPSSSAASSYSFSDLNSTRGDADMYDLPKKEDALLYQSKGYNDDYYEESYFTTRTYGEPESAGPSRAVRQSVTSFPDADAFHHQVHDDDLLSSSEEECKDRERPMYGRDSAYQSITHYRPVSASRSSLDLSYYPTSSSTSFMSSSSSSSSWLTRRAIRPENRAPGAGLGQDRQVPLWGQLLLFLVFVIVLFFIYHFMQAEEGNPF
# UniProt P49366: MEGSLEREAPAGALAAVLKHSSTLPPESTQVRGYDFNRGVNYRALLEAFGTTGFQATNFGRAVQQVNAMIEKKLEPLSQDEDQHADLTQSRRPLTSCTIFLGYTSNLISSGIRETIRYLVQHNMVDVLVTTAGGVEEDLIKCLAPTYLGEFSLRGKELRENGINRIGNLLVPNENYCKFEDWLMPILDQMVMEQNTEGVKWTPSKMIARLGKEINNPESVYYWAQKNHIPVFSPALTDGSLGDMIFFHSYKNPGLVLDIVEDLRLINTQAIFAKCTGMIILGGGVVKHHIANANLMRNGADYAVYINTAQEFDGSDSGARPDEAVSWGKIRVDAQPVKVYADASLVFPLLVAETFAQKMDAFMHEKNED
# UniProt P49675, whole entry: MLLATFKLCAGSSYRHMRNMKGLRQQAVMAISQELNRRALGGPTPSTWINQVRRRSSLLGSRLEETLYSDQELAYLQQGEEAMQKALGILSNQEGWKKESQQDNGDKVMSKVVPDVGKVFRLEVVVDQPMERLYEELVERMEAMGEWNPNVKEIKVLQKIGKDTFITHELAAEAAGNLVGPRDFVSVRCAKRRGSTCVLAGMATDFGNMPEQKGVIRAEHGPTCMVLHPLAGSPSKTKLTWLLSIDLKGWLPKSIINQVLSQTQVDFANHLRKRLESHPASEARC
# UniProt P52294, whole entry: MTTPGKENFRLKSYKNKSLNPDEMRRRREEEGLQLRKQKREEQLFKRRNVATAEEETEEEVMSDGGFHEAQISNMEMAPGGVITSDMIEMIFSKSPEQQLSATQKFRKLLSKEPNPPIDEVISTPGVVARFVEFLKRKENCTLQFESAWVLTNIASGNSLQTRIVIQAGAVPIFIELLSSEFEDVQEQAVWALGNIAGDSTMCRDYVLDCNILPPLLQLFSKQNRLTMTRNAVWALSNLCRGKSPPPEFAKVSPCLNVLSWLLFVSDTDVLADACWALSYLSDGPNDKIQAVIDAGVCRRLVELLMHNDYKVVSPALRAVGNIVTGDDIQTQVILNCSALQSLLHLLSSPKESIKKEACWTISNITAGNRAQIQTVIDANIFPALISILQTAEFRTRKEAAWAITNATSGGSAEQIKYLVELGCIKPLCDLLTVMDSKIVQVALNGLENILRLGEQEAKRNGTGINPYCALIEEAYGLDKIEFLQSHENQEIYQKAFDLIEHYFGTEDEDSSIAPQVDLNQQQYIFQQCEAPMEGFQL
# UniProt P52209: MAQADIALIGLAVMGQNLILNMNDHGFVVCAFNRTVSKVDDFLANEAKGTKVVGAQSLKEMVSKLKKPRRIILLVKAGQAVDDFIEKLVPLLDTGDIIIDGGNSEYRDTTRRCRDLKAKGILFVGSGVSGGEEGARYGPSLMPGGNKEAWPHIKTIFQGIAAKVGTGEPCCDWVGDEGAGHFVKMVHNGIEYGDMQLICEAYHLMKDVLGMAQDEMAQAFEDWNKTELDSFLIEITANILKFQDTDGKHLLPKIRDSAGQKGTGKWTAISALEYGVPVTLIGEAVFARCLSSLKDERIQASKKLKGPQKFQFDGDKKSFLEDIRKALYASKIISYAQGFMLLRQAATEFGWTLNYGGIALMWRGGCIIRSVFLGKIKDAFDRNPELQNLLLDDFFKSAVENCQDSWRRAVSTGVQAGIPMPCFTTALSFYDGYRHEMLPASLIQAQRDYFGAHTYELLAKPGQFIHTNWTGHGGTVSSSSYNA
# UniProt P52788: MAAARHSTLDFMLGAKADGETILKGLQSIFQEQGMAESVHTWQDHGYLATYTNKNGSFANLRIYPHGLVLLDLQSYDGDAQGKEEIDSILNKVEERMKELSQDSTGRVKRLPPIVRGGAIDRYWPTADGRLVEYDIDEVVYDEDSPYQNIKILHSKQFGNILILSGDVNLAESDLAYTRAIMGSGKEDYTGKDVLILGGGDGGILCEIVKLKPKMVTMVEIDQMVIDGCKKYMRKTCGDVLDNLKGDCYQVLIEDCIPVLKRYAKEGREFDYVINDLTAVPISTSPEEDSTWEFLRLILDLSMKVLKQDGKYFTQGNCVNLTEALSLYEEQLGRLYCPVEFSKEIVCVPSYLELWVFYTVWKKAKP
# UniProt P49588, whole entry: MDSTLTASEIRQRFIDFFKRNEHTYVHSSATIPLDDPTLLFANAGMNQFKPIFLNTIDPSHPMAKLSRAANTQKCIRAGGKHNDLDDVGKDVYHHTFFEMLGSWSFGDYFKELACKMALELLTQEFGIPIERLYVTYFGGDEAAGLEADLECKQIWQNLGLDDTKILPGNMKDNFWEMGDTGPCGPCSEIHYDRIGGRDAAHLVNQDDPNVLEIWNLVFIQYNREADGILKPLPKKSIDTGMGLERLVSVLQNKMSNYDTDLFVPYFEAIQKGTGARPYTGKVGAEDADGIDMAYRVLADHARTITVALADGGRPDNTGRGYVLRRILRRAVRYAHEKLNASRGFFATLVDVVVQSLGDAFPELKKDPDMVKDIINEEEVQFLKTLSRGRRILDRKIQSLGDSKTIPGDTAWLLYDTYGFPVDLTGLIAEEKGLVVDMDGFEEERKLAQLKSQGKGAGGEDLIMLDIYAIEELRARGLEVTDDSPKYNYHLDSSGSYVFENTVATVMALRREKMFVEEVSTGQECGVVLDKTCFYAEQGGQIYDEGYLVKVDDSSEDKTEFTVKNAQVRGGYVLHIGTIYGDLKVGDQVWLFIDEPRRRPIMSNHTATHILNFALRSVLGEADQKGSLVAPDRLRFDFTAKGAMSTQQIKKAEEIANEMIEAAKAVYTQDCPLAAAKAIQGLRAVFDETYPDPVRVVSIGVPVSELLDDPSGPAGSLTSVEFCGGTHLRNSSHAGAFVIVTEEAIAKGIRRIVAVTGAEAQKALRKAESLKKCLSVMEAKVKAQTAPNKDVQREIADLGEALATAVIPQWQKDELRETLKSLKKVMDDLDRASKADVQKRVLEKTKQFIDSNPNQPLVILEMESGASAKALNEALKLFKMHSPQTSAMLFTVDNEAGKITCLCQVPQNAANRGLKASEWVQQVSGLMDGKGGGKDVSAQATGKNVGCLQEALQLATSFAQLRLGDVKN
# UniProt P53365: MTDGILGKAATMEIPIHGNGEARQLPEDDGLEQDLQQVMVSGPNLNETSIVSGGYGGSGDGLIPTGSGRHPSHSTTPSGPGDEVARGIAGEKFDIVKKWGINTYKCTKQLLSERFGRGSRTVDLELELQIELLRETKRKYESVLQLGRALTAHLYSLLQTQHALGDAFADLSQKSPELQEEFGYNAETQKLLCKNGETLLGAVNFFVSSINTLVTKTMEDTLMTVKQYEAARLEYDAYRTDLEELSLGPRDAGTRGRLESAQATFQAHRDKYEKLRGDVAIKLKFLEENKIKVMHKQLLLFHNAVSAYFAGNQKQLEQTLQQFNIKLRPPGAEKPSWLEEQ
# UniProt P53634: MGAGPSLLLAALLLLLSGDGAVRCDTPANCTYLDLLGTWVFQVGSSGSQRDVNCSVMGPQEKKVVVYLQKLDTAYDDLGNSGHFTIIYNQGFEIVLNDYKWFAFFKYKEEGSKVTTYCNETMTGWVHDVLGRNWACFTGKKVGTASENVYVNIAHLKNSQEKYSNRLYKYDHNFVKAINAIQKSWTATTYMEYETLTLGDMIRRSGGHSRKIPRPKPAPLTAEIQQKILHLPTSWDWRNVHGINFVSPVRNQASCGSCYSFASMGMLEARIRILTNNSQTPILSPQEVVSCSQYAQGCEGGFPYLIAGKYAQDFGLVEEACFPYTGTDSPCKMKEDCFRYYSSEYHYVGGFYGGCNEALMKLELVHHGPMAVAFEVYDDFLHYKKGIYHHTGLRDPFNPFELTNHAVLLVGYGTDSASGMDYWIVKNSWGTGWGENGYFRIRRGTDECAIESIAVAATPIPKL
# UniProt P51397: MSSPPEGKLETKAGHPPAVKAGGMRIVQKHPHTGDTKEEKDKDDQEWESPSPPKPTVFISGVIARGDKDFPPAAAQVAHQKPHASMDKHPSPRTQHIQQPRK
# UniProt P53396: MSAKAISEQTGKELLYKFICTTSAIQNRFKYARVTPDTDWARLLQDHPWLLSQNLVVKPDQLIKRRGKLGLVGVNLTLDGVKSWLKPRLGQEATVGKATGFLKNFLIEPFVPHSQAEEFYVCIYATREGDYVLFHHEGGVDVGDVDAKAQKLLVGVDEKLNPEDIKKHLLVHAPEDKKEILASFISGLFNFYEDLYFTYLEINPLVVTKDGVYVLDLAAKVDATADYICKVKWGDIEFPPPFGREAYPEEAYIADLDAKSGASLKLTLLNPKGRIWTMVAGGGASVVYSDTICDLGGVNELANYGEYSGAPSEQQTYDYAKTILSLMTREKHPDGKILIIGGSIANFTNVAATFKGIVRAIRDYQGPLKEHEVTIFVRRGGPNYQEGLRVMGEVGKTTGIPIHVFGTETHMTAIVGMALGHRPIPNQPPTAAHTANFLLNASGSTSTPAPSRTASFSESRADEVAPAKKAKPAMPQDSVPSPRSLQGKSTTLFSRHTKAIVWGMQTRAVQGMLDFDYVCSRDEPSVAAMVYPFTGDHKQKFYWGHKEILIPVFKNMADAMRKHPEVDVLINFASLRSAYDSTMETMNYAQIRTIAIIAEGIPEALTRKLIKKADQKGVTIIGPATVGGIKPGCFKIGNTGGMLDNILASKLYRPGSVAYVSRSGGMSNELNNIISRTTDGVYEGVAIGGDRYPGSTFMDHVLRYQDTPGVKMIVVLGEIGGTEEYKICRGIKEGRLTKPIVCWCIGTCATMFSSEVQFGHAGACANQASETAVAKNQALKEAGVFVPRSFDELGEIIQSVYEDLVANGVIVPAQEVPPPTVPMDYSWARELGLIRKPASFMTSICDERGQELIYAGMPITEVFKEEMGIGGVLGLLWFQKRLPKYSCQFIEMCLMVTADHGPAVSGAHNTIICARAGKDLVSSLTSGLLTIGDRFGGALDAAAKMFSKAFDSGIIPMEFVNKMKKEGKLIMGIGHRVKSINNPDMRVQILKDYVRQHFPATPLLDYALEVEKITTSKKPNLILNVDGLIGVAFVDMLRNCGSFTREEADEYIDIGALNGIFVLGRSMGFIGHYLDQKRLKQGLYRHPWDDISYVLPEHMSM
# UniProt P50219: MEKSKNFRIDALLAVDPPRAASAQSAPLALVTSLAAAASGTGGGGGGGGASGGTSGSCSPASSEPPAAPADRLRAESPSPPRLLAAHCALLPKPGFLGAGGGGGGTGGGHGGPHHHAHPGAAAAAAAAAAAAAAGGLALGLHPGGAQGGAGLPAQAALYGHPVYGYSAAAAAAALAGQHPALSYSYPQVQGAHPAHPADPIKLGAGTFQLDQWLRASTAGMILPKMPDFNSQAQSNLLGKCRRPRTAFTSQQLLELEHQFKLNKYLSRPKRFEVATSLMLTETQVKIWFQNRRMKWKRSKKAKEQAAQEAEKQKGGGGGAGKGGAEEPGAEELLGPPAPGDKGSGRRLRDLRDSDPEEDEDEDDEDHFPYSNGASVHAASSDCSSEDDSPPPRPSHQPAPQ
# Compound: Cc1nc(Nc2ncc(C(=O)Nc3c(C)cccc3Cl)s2)cc(N2CCN(CCO)CC2)n1 [dasatinib]
# Test: log2 fold change of tryptic peptide abundance, ligand vs vehicle (limited proteolysis) (log2 ratio); higher = more trypsin-susceptible (destabilized)
# Settings: ligand concentration: 5 uM; sample: K562 cleared lysate
row,Target,log2 fold change
1,"BLVRA (peptide sequence: FGFPAFSGISR, peptide start residue: 162) (UniProt P53004)",0.262
2,"KIF11 (peptide sequence: ASAHSIVECDPVR, peptide start residue: 35) (UniProt P52732)",0.251
3,"RFX5 (peptide sequence: NGLENPEGGAHKKPER, peptide start residue: 268) (UniProt P48382)",0.766
4,"NR2C2 (peptide sequence: SNQDCIINK, peptide start residue: 155) (UniProt P49116)",-0.438
5,"EMD (peptide sequence: YNIPHGPVVGSTR, peptide start residue: 19) (UniProt P50402)",0.169
6,"MTHFS (peptide sequence: GKICFIPR, peptide start residue: 75) (UniProt P49914)",0.133
7,"POLD2 (peptide sequence: AMPLQPSILR, peptide start residue: 100) (UniProt P49005)",0.168
8,"DHPS (peptide sequence: CTGMIILGGGVVK, peptide start residue: 275) (UniProt P49366)",-0.186
9,"DAPK1 (peptide sequence: KASAVNMEK, peptide start residue: 287) (UniProt P53355)",-0.635
10,"STAR (peptide sequence: LYEELVER, peptide start residue: 133) (UniProt P49675)",-0.0848
11,"KPNA1 (peptide sequence: SLNPDEMRR, peptide start residue: 18) (UniProt P52294)",-0.532
12,"CAPZA1 (peptide sequence: RQLPVTR, peptide start residue: 260) (UniProt P52907)",0.246
13,"CAMLG (peptide sequence: IMGFHRPGSGAEEESQTK, peptide start residue: 47) (UniProt P49069)",-0.273
14,"PTDSS1 (peptide sequence: TLSKDDVNYK, peptide start residue: 9) (UniProt P48651)",0.299
15,"RANGAP1 (peptide sequence: SSACFTLQELK, peptide start residue: 138) (UniProt P46060)",-0.145
16,"MTIF2 (peptide sequence: AEADPEKVKK, peptide start residue: 293) (UniProt P46199)",-0.792
17,"PGD (peptide sequence: EAWPHIK, peptide start residue: 148) (UniProt P52209)",-0.106
18,"PSEN1 (peptide sequence: MLVETAQER, peptide start residue: 270) (UniProt P49768)",-0.398
19,"UTRN (peptide sequence: FQLFQKPANFEQR, peptide start residue: 1431) (UniProt P46939)",0.462

row,Target,log2 fold change
1,"THOP1 (peptide sequence: QDAFLLSK, peptide start residue: 668) (UniProt P52888)",0.225
2,"POLG (peptide sequence: LTQQEAAEK, peptide start residue: 973) (UniProt P54098)",0.435
3,"MRPL12 (peptide sequence: NYIQGINLVQAKK, peptide start residue: 151) (UniProt P52815)",0.406
4,"RAB5C (peptide sequence: GVDLQENNPASR, peptide start residue: 199) (UniProt P51148)",0.0462
5,"RFX3 (peptide sequence: SDGLSTHR, peptide start residue: 169) (UniProt P48380)",-0.124
6,"SMS (peptide sequence: MKELSQDSTGR, peptide start residue: 97) (UniProt P52788)",0.197
7,"AARS (peptide sequence: ASEWVQQVSGLMDGKGGGK, peptide start residue: 916) (UniProt P49588)",0.325
8,"RBM5 (peptide sequence: GSAYGLSGADSYKDAVR, peptide start residue: 788) (UniProt P52756)",-0.329
9,"ARFIP2 (peptide sequence: LESAQATFQAHR, peptide start residue: 258) (UniProt P53365)",0.506
10,"CTSC (peptide sequence: NVHGINFVSPVR, peptide start residue: 239) (UniProt P53634)",-0.0429
11,"UniProt P51787 (peptide sequence: GSAGLAK, peptide start residue: 26)",-0.194
12,"DAP (peptide sequence: GDKDFPPAAAQVAHQKPHASMDK, peptide start residue: 66) (UniProt P51397)",0.425
13,"ACLY (peptide sequence: FICTTSAIQNR, peptide start residue: 18) (UniProt P53396)",0.12
14,"MNX1 (peptide sequence: TAFTSQQLLELEHQFK, peptide start residue: 246) (UniProt P50219)",-0.405
15,"TPMT (peptide sequence: HLDTFLK, peptide start residue: 52) (UniProt P51580)",0.124
16,"RPL21 (peptide sequence: INVRIEHIKHSK, peptide start residue: 89) (UniProt P46778)",0.468
17,"TUFM (peptide sequence: KYEEIDNAPEERAR, peptide start residue: 94) (UniProt P49411)",0.974
18,"PEX5 (peptide sequence: WYDEYHPEEDLQHTASDFVAK, peptide start residue: 184) (UniProt P50542)",0.169

# Part of the list above, tab-delimited:
row	Target	log2 fold change
2	POLG (peptide sequence: LTQQEAAEK, peptide start residue: 973) (UniProt P54098)	0.435
3	MRPL12 (peptide sequence: NYIQGINLVQAKK, peptide start residue: 151) (UniProt P52815)	0.406
